No constants are given. Whether binding was seen depends on the method and setting. Some results given as binding are weak or reduced against the parent protein; the word gives no strength.
Molecular target: pGBKT7-PtpA (Gal4-BD fusion of Mtb PtpA) (Mycobacterium tuberculosis) (UniProt P9WIA1)
Assay: two-hybrid

The chains behind the UniProt entries cited, without tags or fusion partners.
UniProt P9WIA1: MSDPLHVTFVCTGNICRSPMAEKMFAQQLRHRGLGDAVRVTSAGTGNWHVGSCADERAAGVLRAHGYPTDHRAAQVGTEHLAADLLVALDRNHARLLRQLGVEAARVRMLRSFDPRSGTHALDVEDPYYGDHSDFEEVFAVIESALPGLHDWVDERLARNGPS
UniProt Q96LA8: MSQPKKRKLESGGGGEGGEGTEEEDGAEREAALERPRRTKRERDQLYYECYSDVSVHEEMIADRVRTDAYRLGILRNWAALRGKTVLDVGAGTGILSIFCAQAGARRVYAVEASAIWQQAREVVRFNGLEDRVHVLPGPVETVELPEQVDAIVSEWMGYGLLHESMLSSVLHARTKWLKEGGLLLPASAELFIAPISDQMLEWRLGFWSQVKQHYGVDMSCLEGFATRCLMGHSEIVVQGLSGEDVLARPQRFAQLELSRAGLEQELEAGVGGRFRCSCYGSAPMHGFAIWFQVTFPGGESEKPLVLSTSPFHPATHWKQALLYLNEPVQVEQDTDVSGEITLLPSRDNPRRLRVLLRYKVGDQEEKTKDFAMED

For “pGADT7-PRMT6 (from UniProt Q96LA8 1-375)”, the binding was “binds”.

Source: publication PMC10023711
